{
  "sequences": {"note": "Chains of the proteins cited; added tags and fusions are not shown. Residues count along the entry.", "UniProt P08670, 2-466": "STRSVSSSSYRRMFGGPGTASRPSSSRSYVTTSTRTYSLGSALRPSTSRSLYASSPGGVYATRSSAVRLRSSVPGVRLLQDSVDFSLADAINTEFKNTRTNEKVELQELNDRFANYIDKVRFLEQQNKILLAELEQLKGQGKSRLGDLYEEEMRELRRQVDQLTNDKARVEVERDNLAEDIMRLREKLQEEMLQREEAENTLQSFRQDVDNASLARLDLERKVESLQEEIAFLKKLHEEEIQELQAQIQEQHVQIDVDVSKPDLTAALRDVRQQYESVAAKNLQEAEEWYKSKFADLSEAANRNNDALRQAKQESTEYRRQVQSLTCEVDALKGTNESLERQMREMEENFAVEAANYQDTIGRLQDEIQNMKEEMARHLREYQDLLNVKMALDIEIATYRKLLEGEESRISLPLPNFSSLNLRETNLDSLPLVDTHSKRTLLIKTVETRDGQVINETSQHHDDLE"},
  "source": "paper PMC8588432",
  "key": {"[1]": {"molecular_target": "vimentin on/in IGROV cells (UniProt P08670)", "experiment": "flow cytometry", "settings": "fixed IGROV cells, 22 C, 1 h, protein on the cell surface, label: 5'-biotin, synthetic backbone"}, "[2]": {"molecular_target": "vimentin on/in IGROV cells (UniProt P08670)", "experiment": "flow cytometry and fluorescence microscopy", "settings": "fixed IGROV cells, monothioated phosphates 3' of adenines (shown in red, positions not in text), 22 C, 1 h, protein on the cell surface, synthetic backbone"}, "[3]": {"settings": "lower than V5M2, monothioated phosphates 3' of adenines"}, "[4]": {"settings": "lower than V3M2, monothioated phosphates 3' of adenines"}},
  "note": "The exact form of at least one protein or probe is not confirmed. Where cells or extracts were used, other partners may take part. Weaker means in comparison with the reference protein, sequence or condition of that experiment. For some assays here: At least one verdict rests on a figure or table, not on a statement of the authors.",
  "data": [
    {"sequence": "AAGCTTCGCATAGACCCAGCTGGTCCG [V5M1]", "values": [
      {"measurement": "binding result", "setting": "[1]; [3]", "value": "binds more weakly"}
    ]},
    {"sequence": "AGCTTCGCATAGACCCAGCTGGTCCGGAAAATAAGAT [V5M3]", "values": [
      {"measurement": "binding result", "setting": "[1]; [3]", "value": "binds more weakly"}
    ]},
    {"sequence": "TAGACCCAGCTGGTCCGGAAAATAAGATGTCACGGATCCTC [V5M2]", "values": [
      {"measurement": "binding result", "setting": "[2]; label: 5'-biotin", "value": "binds"}
    ]},
    {"sequence": "ACCTCTTCAAGAACATCCCTGTCACGGATCCTCTAGAGCA [V3M2]", "values": [
      {"measurement": "binding result", "setting": "[2]; label: 5'-biotin", "value": "binds"}
    ]},
    {"sequence": "CGGATCGATAAGCTTCGATCAT [V3M4]", "values": [
      {"measurement": "binding result", "setting": "[1]; [4]", "value": "binds more weakly"}
    ]},
    {"sequence": "CAAGAACATCCCTGTCACGGATCCTCTAG [V3M3]", "values": [
      {"measurement": "binding result", "setting": "[1]; [4]", "value": "binds more weakly"}
    ]},
    {"sequence": "CGGATCGATAAGCTTCGATCATCGATCAC [V3M1]", "values": [
      {"measurement": "binding result", "setting": "[1]; [4]", "value": "binds more weakly"}
    ]},
    {"sequence": "CCCACTTATCGTCCCTTAATGAGTTTACTCGCACACCGGA [Scrambled control (40 mer)]", "values": [
      {"measurement": "binding result", "setting": "[2]; minimal fluorescence, non-specific and low binding, label: biotin", "value": "binds more weakly"}
    ]}
  ]
}
